For 51 sequences, binding signal results are on record in article PMC7862700.

Chains of the proteins cited; added tags and fusions are not shown. Lines headed by an entry give the natural chain unless they say otherwise; changes in a name come on top.
UniProt Q01892: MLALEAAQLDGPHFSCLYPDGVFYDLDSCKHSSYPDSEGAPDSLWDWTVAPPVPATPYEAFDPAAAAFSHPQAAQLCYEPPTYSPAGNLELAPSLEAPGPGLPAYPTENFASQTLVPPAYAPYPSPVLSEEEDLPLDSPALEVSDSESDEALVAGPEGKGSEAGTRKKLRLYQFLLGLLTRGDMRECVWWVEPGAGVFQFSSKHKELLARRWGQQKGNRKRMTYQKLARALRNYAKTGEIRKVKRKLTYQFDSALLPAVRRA

The list shows a part of the results, in another mix than the full data. At the low end of the ranking, values are background and their order means little.

What all share (experiment): DAPPL (digital affinity profiling via proximity ligation, sequencing)
Common to all, as to details: 10 mM Tris-HCl pH 7.5, 50 mM NaCl, 1 mM DTT, 4% glycerol, room temperature, 30 min; GST-TFs on glutathione beads, 16-mer random dsDNA library, 0.1% …; high values mean tight binding; double strand, one strand shown; scale: fold enrichment (6-mer frequency, TF over GST control)

One assay has as its target T1, FLI1 (UniProt Q01543).
T1 sequence: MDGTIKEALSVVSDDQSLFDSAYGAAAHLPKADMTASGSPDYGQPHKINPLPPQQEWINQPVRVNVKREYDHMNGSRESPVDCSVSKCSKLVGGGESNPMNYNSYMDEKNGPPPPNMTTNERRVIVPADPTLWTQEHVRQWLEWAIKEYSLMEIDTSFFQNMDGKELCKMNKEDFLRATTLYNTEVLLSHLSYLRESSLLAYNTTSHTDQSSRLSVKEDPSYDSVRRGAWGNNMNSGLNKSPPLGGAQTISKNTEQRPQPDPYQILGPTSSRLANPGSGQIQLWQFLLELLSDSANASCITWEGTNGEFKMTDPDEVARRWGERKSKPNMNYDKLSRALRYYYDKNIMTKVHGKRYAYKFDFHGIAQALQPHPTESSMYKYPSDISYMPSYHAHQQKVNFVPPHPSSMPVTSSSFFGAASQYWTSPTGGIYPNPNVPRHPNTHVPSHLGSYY

The next assay addresses T2, ETV2 (UniProt O00321).
T2 sequence: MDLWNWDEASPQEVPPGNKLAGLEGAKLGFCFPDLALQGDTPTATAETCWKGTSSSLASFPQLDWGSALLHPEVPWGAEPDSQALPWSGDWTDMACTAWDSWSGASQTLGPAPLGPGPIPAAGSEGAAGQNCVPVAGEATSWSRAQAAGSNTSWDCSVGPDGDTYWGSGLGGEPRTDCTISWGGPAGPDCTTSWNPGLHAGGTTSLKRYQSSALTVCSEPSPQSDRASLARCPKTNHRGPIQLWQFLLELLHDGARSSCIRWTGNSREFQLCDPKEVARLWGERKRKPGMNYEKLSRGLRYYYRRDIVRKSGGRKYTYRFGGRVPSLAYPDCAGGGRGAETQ

The next assay addresses T3, ETV3L (UniProt Q6ZN32).
T3 sequence: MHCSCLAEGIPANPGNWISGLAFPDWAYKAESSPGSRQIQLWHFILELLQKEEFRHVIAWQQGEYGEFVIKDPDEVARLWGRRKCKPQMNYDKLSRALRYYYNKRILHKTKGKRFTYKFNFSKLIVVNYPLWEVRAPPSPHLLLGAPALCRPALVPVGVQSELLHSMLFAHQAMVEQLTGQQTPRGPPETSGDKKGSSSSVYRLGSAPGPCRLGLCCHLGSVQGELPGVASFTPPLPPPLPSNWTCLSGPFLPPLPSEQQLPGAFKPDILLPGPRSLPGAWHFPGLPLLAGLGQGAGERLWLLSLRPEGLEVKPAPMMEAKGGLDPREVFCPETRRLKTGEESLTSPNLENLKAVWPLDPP

In a further assay the target is T4, EHF (UniProt Q9NZC4).
T4 sequence: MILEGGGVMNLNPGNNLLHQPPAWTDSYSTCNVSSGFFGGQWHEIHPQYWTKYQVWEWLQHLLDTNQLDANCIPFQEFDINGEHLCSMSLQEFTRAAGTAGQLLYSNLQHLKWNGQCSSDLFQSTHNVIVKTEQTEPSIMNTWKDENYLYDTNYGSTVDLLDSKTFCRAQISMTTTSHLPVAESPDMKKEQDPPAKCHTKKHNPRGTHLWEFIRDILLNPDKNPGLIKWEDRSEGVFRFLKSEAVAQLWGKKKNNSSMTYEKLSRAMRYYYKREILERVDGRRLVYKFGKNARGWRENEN

A further assay concerns the target SPIB (UniProt Q01892).

Regarding TAGTAT, the binding signal with FLI1 was 1.25; with ETV2, 1.34.
The like results for TCAAAA were, in that order, 1.12 and 1.23.
On to CTGCGG, for which the binding signal with FLI1 worked out at 1.23; with ETV2, 1.25.
On to GACTTT, for which the binding signal in the assay with FLI1 came out at 1.04; in the assay with ETV2 it was 1.1.
On the same counts, the results for ACTGTT are 1.15 and 1.23.
On to TGTTAC, for which the binding signal with FLI1 was determined as 1.49; with ETV2, 1.58.
ACGATT: the binding signal in the assay with FLI1 came to 1.44; in the assay with ETV2, 1.24.
In the case of TTTGAC, the binding signal with FLI1 came out at 1.57; with ETV2, 1.5.
For the sequence ATAATG, the binding signal in the assay with FLI1 was found to be 0.984; with ETV2, 0.967.
Turning to CCAACT, the binding signal was 1.26 with FLI1 and 1.11 with ETV2.
Consider ATCTTA, for which the binding signal in the assay with FLI1 was 1.15; with ETV2, 1.12; with ETV3L, 1.1.
Consider CTGTAC, for which the figures for the binding signal with FLI1 and in the assay with ETV2 were 1.28 and 1.39, respectively.
Turning to TGGCTC, the values for the binding signal with FLI1 and with ETV2 were 1.4 and 1.61, respectively.
On the same counts, the results for ACAATG are 1.1 and 0.929.
As for ACGTTG, the results for the binding signal with FLI1 and with ETV2 were 1.14 and 0.99, respectively.
On to AACCCC, for which the binding signal with FLI1 worked out at 1.08; with ETV2, 1.18.
As to TTGTTA, the results for the binding signal with FLI1 and with ETV2 were 1.32 and 1.35, respectively.
As for ATGTTT, the binding signal was found to be 1.48 with FLI1 and 1.41 in the assay with ETV2.
The like results for TGCAGC were, in that order, 0.986 and 1.12.
On to TGATGA, for which the binding signal in the assay with FLI1 worked out at 1.38; with ETV2 it was 1.33.
For GTGCTA, the binding signal came to 1.11 in the assay with FLI1 and 0.962 with ETV2.
For TAGCTG, the binding signal with FLI1 was determined as 1.29; with ETV2, 1.15.
Consider ATGTTG, for which the binding signal with FLI1 was 1.31; with ETV2, 0.993.
As to CTGAAC, the binding signal with FLI1 and with ETV2 was 1.35 in each case.
For the sequence TAACGC, the binding signal in the assay with FLI1 was 1.12; with ETV2, 1.13.
Consider TTGGTA, for which the binding signal with FLI1 was 1.23; with ETV2, 1.
On to CATACC, for which the binding signal with FLI1 was found to be 1.03; with ETV2 it was 1.16.
Turning to TGCTTA, the binding signal was found to be 1.04 in the assay with FLI1 and 0.999 in the assay with ETV2.
As for GCTGTT, the values for the binding signal with FLI1 and with ETV2 were 1.04 and 1.1, respectively.
As for CGTAAA, the binding signal with FLI1 is 0.999; with ETV2, 1.21.
For the sequence CCAAAT, the binding signal stood at 1.02 with FLI1, 0.973 with ETV2 and 1.02 with ETV3L.
For the sequence CGCTGC, the results for the binding signal in the assay with FLI1 and in the assay with ETV2 were 1.12 and 0.976, respectively.
Regarding CGATGG, the binding signal amounted to 1.36 with FLI1 and 1.34 with ETV2.
Take CCTCCT: the figures for the binding signal with FLI1 and with ETV2 were 1.72 and 1.45, respectively.
On to CGCGCC, for which the binding signal in the assay with FLI1 is 0.982; in the assay with ETV2, 0.994.
Consider TGTATA, for which the results for the binding signal with FLI1 and with ETV2 were 1.08 and 1.04, respectively.
As for TAAAGC, the results for the binding signal with FLI1, with ETV2 and with ETV3L were 1.03, 0.902 and 0.948, respectively.
Consider CTTGCG, for which the binding signal was 1.44 in the assay with FLI1, 1.41 with EHF, 1.29 with ETV2 and 1.39 in the assay with ETV3L.
Regarding GTTTAT, the figures for the binding signal with FLI1, with EHF and in the assay with ETV2 were 1.09, 1.06 and 0.975, respectively.
On to CCACCG, for which the binding signal was found to be 0.939 in the assay with FLI1, 0.981 with ETV2 and 0.874 with ETV3L.
Regarding GTGCCC, the binding signal came to 0.928 with FLI1; 0.95 with EHF; 0.991 with SPIB; 0.888 in the assay with ETV2; 1 in the assay with ETV3L.
For GTACTG, the binding signal in the assay with FLI1 came to 0.997; with ETV2, 0.95; in the assay with ETV3L, 0.885.
Take CAAACC: the binding signal with FLI1 was determined as 1.16; with SPIB it was 1.06; in the assay with ETV2 it was 1.12; in the assay with ETV3L, 1.18.
Take GCCCGC: the binding signal in the assay with FLI1 came out at 1.09; in the assay with ETV2 it was 1.16; in the assay with ETV3L, 1.09.
As to ATGCGC, the binding signal with FLI1 was determined as 1.15; with EHF it was 1.17; in the assay with ETV2, 1.1.
TCACCA: the binding signal amounted to 1.18 in the assay with FLI1, 1.06 with EHF, 1.32 in the assay with ETV2 and 1.16 with ETV3L.
In the case of GTTAAG, the binding signal with FLI1 is 1.04; in the assay with EHF, 1.01; in the assay with ETV2, 1.1.
Regarding AAGATG, the binding signal with FLI1 is 1.17; in the assay with ETV2, 1.13; with ETV3L it was 1.12.
Turning to GCAATG, the binding signal with FLI1 was 1.05; with SPIB it was 0.977; in the assay with ETV2, 1.07; with ETV3L it was 0.998.
For the sequence CAGCCC, the figures for the binding signal in the assay with FLI1, in the assay with EHF and with ETV2 were 0.975, 1.16 and 1.27, respectively.
With AGAAGT, the binding signal with FLI1 turned out to be 0.973; with SPIB it was 0.968; with ETV2, 1.03; in the assay with ETV3L it was 0.947.
